Measured data: PubChem BioAssay AID1671195 (Yale University, 2021)
Purpose: 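Genes whose knockdown alters LDL uptake in liver cancer cells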 (primary screen). Cell system: human Huh7 hepatoma cells. Reagents: siRNA pool against human genes, 18 nM. Duration: about 2 to 2.5 days of knockdown, then 8 h LDL uptake. Treatment: DiI-labelled LDL at 30 µg/ml for 8 h, in lipoprotein-deficient serum medium. Measured: 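Per-cell DiI-LDL intensity by automated imaging; well means scaled to the plate median and given as a robust z-score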. Reading the numbers: robust z-score: higher = more LDL uptake after knockdown. Call rule: 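Active when two or more replicates show a robust z-score above 2 or below -2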.
In all, the deposit lists about 22,000 reagents; this is an unselected part. About 1,510 of them (6.9%) count as active. 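Active includes knockdowns raising or lowering LDL uptake; positive z-scores mean more uptake, negative mean less.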 Entries without a mark were called inactive.

gene | robust z-score, replicate 1 | robust z-score, replicate 2 | robust z-score, replicate 3
OAT (ornithine aminotransferase) | 0.603 | 2.48 | 1.14
MRGPRX2 (MAS related GPR family member X2) | -0.463 | 0.0263 | 0.16
ADIPOQ (adiponectin, C1Q and collagen domain containing) | -2.1 (active) | -2.21 | -1.79
YIF1A | 3.88 (active) | 2.61 | 3.54
EFL1 (elongation factor like GTPase 1) | -1.67 | -0.782 | -0.956
IL9RP2 (IL9R pseudogene 2) | -0.772 | -0.232 | -0.948
KANK3 (KN motif and ankyrin repeat domains 3) | -1.15 | -1.07 | -1.09
BRD2 (bromodomain containing 2) | -0.64 | 0.562 | -0.208
MYL4 (myosin light chain 4) | 1.15 | 1.98 | 0.391
TGM3 (transglutaminase 3) | 0.292 | 0.0811 | 0.418
ZNF91 (zinc finger protein 91) | -0.652 | -1.41 | -0.652
HSPD1 (heat shock protein family D (Hsp60) member 1) | -0.0808 | 0.762 | -0.207
TYW5 (tRNA-yW synthesizing protein 5) | 0.653 | -0.986 | -0.224
LINC03106 (long independently transcribed non-coding RNA 3106) | 0.758 | 0.977 | 1.05
SLC25A47 | 0.979 | 1.03 | 1.16
ARSD (arylsulfatase D) | 0.26 | 0.328 | -0.17
MRPL42 (mitochondrial ribosomal protein L42) | -1.19 | -1.55 | -0.606
LINC02724 (long independently transcribed non-coding RNA 2724) | -2.15 (active) | -2.16 | -2.88
CLP1 (cleavage factor polyribonucleotide kinase subunit 1) | -1.66 | -1.6 | -2.33
VSTM5 (V-set and transmembrane domain containing 5) | 0.413 | 0.917 | 1.34
HMGN5 (high mobility group nucleosome binding domain 5) | 3.45 (active) | 3.14 | 2.06
RNH1 (ribonuclease/angiogenin inhibitor 1) | -0.221 | -0.213 | 0.145
LOC391144 (retired record) | -0.61 | -0.224 | -0.37
RTL8B (retrotransposon Gag like 8B) | 0.425 | 0.969 | 0.765
SLCO1B3 | 0.565 | 0.12 | 0.487
KIF22 (kinesin family member 22) | 0.852 | 1.06 | 0.0369
NMD3 (NMD3 ribosome export adaptor) | 2.23 | 1.25 | -1.66
DGKA (diacylglycerol kinase alpha) | -0.651 | -0.648 | -0.93
PRR22 (proline rich 22) | 0.913 | 0.843 | 0.516
CHTOP (chromatin target of PRMT1) | -0.615 | 0.845 | 1.75
COQ8B (coenzyme Q8B) | 0.216 | -1.12 | -1.18
NCAPG2 (non-SMC condensin II complex subunit G2) | 3.42 (active) | 2.95 | 2.27
LOC390367 (retired record) | -0.0418 | -0.581 | -0.472
FBLN1 (fibulin 1) | -1.56 | -1.93 | -1.45
RAB4B (RAB4B, member RAS oncogene family) | -1.21 | 1.49 | -1.15
ARHGEF37 (Rho guanine nucleotide exchange factor 37) | -0.929 | -0.863 | -0.897
SLC4A10 | 0.175 | 0.528 | 0.265
GPR83 (G protein-coupled receptor 83) | -0.705 | -1.64 | -1.35
RANBP1P1 (RANBP1 pseudogene 1) | -0.521 | -0.347 | -0.508
TMEM33 (transmembrane protein 33) | 0.942 | 2.05 | 0.517
TMEM100 (transmembrane protein 100) | 1.15 | 1.38 | 1.34
PRR5L (proline rich 5 like) | 0.795 | 0.955 | 0.552
MATN2 (matrilin 2) | 2.03 | 1.55 | 1.54
LOC440089 (retired record) | 3.56 (active) | 3.08 | 2.95
NLRP12 (NLR family pyrin domain containing 12) | -0.926 | -0.414 | -0.762
SIAH3 (siah E3 ubiquitin protein ligase family member 3) | -0.581 | -0.675 | -0.835
THOC1 (THO complex subunit 1) | -0.335 | -1.24 | 0.794
KCTD21 (potassium channel tetramerization domain containing 21) | -0.325 | -0.565 | -0.287
PCDHB6 (protocadherin beta 6) | -0.825 | -1.1 | -0.838
SERINC4 (serine incorporator 4) | -1.5 | -1.2 | -1.42
SASS6 (SAS-6 centriolar assembly protein) | 1.79 (active) | 2.14 | 2.19
PRCD (photoreceptor disc component) | -0.552 | -0.754 | -0.807
RXFP1 (relaxin family peptide receptor 1) | -1.28 | -1.63 | -0.96
CTSL3P (cathepsin L family member 3, pseudogene) | 0.216 | 0.782 | 1.58
COL6A1 (collagen type VI alpha 1 chain) | 1.52 | 1.71 | 1.9
EIF4E3 (eukaryotic translation initiation factor 4E family member 3) | -0.502 | -0.399 | -0.292
CCL1 (C-C motif chemokine ligand 1) | -0.117 | 0.0345 | 0.172
SPRN (shadow of prion protein) | -1.9 (active) | -2.17 | -1.82
FBXL5 (F-box and leucine rich repeat protein 5) | 0.983 | -1.69 | 0.158
LOC391092 (PRAME family member 17 pseudogene) | 0.864 | 0.804 | 0.915
EHD4 (EH domain containing 4) | -1.11 | 0.116 | -0.216
ZCRB1 (zinc finger CCHC-type and RNA binding motif containing 1) | -0.298 | -0.56 | -0.101
PRAC1 (PRAC1 small nuclear protein) | 0.163 | 0.136 | 0.182
CISD2 (CDGSH iron sulfur domain 2) | 0.119 | -0.00756 | 0.0632
FAAH (fatty acid amide hydrolase) | 0.515 | -0.147 | -0.925
RMI2 (RecQ mediated genome instability 2) | -1.22 | -0.783 | -1.26
SIRPD (signal regulatory protein delta) | 0.565 | 1.62 | 1.48
KRTAP26-1 (keratin associated protein 26-1) | -0.46 | -0.293 | -0.365

Laid out differently: 4 of the entries above
LINC03106 (long independently transcribed non-coding RNA 3106): robust z-score, replicate 1 = 0.758; robust z-score, replicate 2 = 0.977; robust z-score, replicate 3 = 1.05
SLC25A47: robust z-score, replicate 1 = 0.979; robust z-score, replicate 2 = 1.03; robust z-score, replicate 3 = 1.16
ARSD (arylsulfatase D): robust z-score, replicate 1 = 0.26; robust z-score, replicate 2 = 0.328; robust z-score, replicate 3 = -0.17
MRPL42 (mitochondrial ribosomal protein L42): robust z-score, replicate 1 = -1.19; robust z-score, replicate 2 = -1.55; robust z-score, replicate 3 = -0.606
